This passage reports cell viability results from the supplement of paper PMC12873370.

Values joined by “and” are separate entries in the source; they are usually repeats but may differ in a detail not shown here. Equal values may be shown once. This is one part of the list. Repeats are few or missing, and single values can be far off.

This experiment concerns MEPP (mouse ovarian epithelium Trp53/Pten KO). As to the kind of experiment: cell viability relative to untreated (fraction); higher = less growth inhibition. As to conditions: 5 µM; 3 days.
On to `Oc1cc(O)c2c(c1)O[C@H](c1ccc(O)c(O)c1)[C@@H](O)C2`, for which the cell viability is 0.926.

`C[C@]1(Cn2ccnn2)[C@H](C(=O)O)N2C(=O)C[C@H]2S1(=O)=O` came in with a cell viability of 0.936.

With `C[C@@H]1O[C@@H](O[C@H]2[C@H](O[C@H]3CC[C@@]4(C)[C@@H](CC[C@]5(C)[C@@H]4CC=C4[C@@H]6CC(C)(C)CC[C@]6(C(=O)O[C@@H]6O[C@H](CO[C@@H]7O[C@H](CO)[C@@H](O)[C@H](O)[C@H]7O)[C@@H](O)[C@H](O)[C@H]6O)CC[C@]45C)[C@]3(C)CO)OC[C@H](O)[C@@H]2O)[C@H](O)[C@H](O[C@@H]2O[C@H](CO)[C@@H](O[C@@H]3O[C@H](CO)[C@@H](O)[C@H](O)[C@H]3O)[C@H](O)[C@H]2O)[C@H]1O`, the cell viability was found to be 1.16.

On to `O=c1ccn([C@H]2C[C@H](O)[C@@H](CO)O2)c(=O)[nH]1`, for which the cell viability turned out to be 0.978.

Turning to `CN(C)CCCN1c2ccccc2Sc2ccc(Cl)cc21`, the cell viability is 1.04.

The compound `COc1ccc(-c2cc(=O)c3c(O)cc(O)cc3o2)cc1O` displayed a cell viability of 0.652.

For the compound `OB1OCc2cc(F)ccc21`, the cell viability turned out to be 1.25.

In turn, `C=CCCC(=O)O` came in with a cell viability of 1.01.

`Cc1occc(=O)c1O` showed a cell viability of 0.929.

On to `COc1cc2c(cc1OC)-c1cc3ccc4c(c3c[n+]1CC2)OCO4`, for which the cell viability amounted to 0.997.

`C[C@@H]1O[C@@H](O[C@H]2[C@H](Oc3cc(O)c(C(=O)CCc4ccc(O)cc4)c(O)c3)O[C@H](CO)[C@@H](O)[C@@H]2O)[C@H](O)[C@H](O)[C@H]1O`: the cell viability amounted to 0.817.

`COc1c(N2CCNC(C)C2)c(F)cc2c(=O)c(C(=O)O)cn(C3CC3)c12` (centres undefined) yielded a cell viability of 1.06.

For the compound `CCCCCCCCCCCCCCCCCC(=O)OC`, the cell viability came out at 1.01.

`C#CC1(O)CC[C@H]2[C@@H]3CCC4=CC(=O)CC[C@@H]4[C@H]3CC[C@@]21CC` (some centres undefined): the cell viability was 1.07.

Turning to `NCCCCN`, the cell viability was 0.85 and 1.48.

For `COc1cc(NS(=O)(=O)c2ccc(N)cc2)nc(OC)n1`, the cell viability worked out at 1.05.

Consider `O=C(O)c1cccnc1`, for which the cell viability came to 0.848.

As for `C[C@@H]1CC[C@@]2(NC1)O[C@H]1C[C@H]3[C@@H]4CC=C5C[C@@H](O[C@@H]6O[C@H](CO)[C@@H](O[C@@H]7O[C@@H](C)[C@H](O)[C@@H](O)[C@H]7O)[C@H](O)[C@H]6O[C@@H]6O[C@@H](C)[C@H](O)[C@@H](O)[C@H]6O)CC[C@]5(C)[C@H]4CC[C@]3(C)[C@H]1[C@@H]2C`, the cell viability was determined as 0.408.

For the compound `COc1ccc(C(C)=O)c(O)c1`, the cell viability was 1.08.

As for `Nc1ccc(S(=O)(=O)c2ccc(N)cc2)cc1`, the cell viability amounted to 0.812.

As to `CCCCC(C)(O)C/C=C/[C@H]1[C@H](O)CC(=O)[C@@H]1CCCCCCC(=O)OC` (some centres undefined), the cell viability came to 0.796.

Regarding `Nc1cc(C(=O)O)ccc1O`, the cell viability turned out to be 0.985.

In turn, `O=C(OC[C@H]1O[C@@H](OC(=O)c2cc(O)c(O)c(O)c2)[C@H](OC(=O)c2cc(O)c(O)c(O)c2)[C@@H](OC(=O)c2cc(O)c(O)c(O)c2)[C@@H]1OC(=O)c1cc(O)c(O)c(O)c1)c1cc(O)c(O)c(O)c1` registered a cell viability of 1.08.

Compound `NC(N)=NCC(=O)O` returned a cell viability of 0.935.

Consider `CCOC(=O)O[C@]1(C(=O)OCCl)CC[C@H]2[C@@H]3CCC4=CC(=O)C=C[C@]4(C)[C@H]3[C@@H](O)C[C@@]21C`, for which the cell viability stood at 1.15.

As for `CCC[C@@H]1C[C@@H](C(=O)N[C@@H]([C@H]2O[C@H](SC)[C@H](O)[C@@H](O)[C@H]2O)[C@@H](C)O)N(C)C1`, the cell viability was found to be 0.935.

Consider `COc1ccc(O)cc1`, for which the cell viability was determined as 0.964.

On to `CC(C)c1ccc(C=O)cc1`, for which the cell viability was determined as 1.01.

For `COc1ccc(-c2cc(=S)ss2)cc1`, the cell viability came to 0.939.

Take `CC1=C2C(=O)O[C@@H](c3ccoc3)[C@]2(C)CCC1`: the cell viability came out at 1.32.

On to `COc1cc2c(cc1OC)[C@H]1[C@@H](C)c3ccc(OC)c(OC)c3CN1CC2`, for which the cell viability stood at 0.819.

The compound `O=C1c2c(O)cccc2C([C@@H]2O[C@H](CO)[C@@H](O)[C@H](O)[C@H]2O)c2cc(CO)cc(O)c21` (some centres undefined) came in with a cell viability of 1.01.

For `Cc1nnc(NS(=O)(=O)c2ccc(N)cc2)s1`, the cell viability is 0.819.

For `CC[C@H]1OC(=O)[C@H](C)[C@@H](O[C@H]2C[C@@](C)(OC)[C@@H](O)[C@H](C)O2)[C@H](C)[C@@H](O[C@@H]2O[C@H](C)C[C@H](N(C)C)[C@H]2O)[C@](C)(O)C[C@@H](C)CN(C)[C@H](C)[C@@H](O)[C@]1(C)O`, the cell viability is 0.869 and 0.947.

`CC1(C)CC[C@]2(C(=O)O)CC[C@]3(C)C(=CC[C@@H]4[C@@]5(C)C[C@@H](O)[C@H](O)C(C)(C)[C@@H]5CC[C@]43C)[C@@H]2C1`: the cell viability was 1.08.

On to `CO[C@H]1C[C@H](O[C@H]2[C@H](C)O[C@@H](O[C@@H]3/C(C)=C/C[C@@H]4C[C@@H](C[C@]5(C=C[C@H](C)[C@@H](C6CCCCC6)O5)O4)OC(=O)[C@@H]4C=C(C)[C@@H](O)[C@H]5OC/C(=C\C=C\[C@@H]3C)[C@]54O)C[C@@H]2OC)O[C@@H](C)[C@@H]1O`, for which the cell viability turned out to be 1.06.

`CCS(=O)(=O)CCn1c([N+](=O)[O-])cnc1C` came in with a cell viability of 1.02.

For the compound `CN(C)CCn1nnnc1SCC1=C(C(=O)O)N2C(=O)[C@@H](NC(=O)Cc3csc(N)n3)[C@H]2SC1`, the cell viability stood at 1.17.

Turning to `C=C1C(=O)O[C@@H]2C[C@@]3(C)CCC[C@H](C)C3=C[C@H]12`, the cell viability worked out at 1.17.
